In publication doi:10.1101/2020.09.17.301283 one finds binding data, which are given here for 1 molecule.

Chains of the proteins cited; added tags and fusions are not shown.
UniProt P18848: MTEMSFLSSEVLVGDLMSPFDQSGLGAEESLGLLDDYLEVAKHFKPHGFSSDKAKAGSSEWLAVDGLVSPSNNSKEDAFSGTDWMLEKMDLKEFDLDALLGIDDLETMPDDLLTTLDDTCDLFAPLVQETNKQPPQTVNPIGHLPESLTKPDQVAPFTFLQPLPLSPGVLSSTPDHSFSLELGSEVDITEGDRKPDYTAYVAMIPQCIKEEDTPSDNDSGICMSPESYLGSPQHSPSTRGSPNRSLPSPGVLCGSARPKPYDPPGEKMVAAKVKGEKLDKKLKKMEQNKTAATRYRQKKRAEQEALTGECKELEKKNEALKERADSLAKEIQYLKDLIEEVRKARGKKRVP

The target in this experiment is ATF4 (human (endogenous in 22rv1)) (UniProt P18848). The experiment in a line: proximity ligation.

No constants are given. Whether binding was seen depends on the method and setting. In cells and extracts the contact can be indirect. Some results given as binding are weak or reduced against the parent protein; the word gives no strength.

B1: Schlafen family member 5 (SLFN5) (protein, UniProt Q08AF3 1-891)
chain: MSLRIDVDTNFPECVVDAGKVTLGTQQRQEMDPRLREKQNEIILRAVCALLNSGGGIIKAEIENKGYNYERHGVGLDVPPIFRSHLDKMQKENHFLIFVKSWNTEAGVPLATLCSNLYHRERTSTDVMDSQEALAFLKCRTQTPTNINVSNSLGPQAAQGSVQYEGNINVSAAALFDRKRLQYLEKLNLPESTHVEFVMFSTDVSHCVKDRLPKCVSAFANTEGGYVFFGVHDETCQVIGCEKEKIDLTSLRASIDGCIKKLPVHHFCTQRPEIKYVLNFLEVHDKGALRGYVCAIKVEKFCCAVFAKVPSSWQVKDNRVRQLPTREWTAWMMEADPDLSRCPEMVLQLSLSSATPRSKPVCIHKNSECLKEQQKRYFPVFSDRVVYTPESLYKELFSQHKGLRDLINTEMRPFSQGILIFSQSWAVDLGLQEKQGVICDALLISQNNTPILYTIFSKWDAGCKGYSMIVAYSLKQKLVNKGGYTGRLCITPLVCVLNSDRKAQSVYSSYLQIYPESYNFMTPQHMEALLQSLVIVLLGFKSFLSEELGSEVLNLLTNKQYELLSKNLRKTRELFVHGLPGSGKTILALRIMEKIRNVFHCEPANILYICENQPLKKLVSFSKKNICQPVTRKTFMKNNFEHIQHIIIDDAQNFRTEDGDWYGKAKFITQTARDGPGVLWIFLDYFQTYHLSCSGLPPPSDQYPREEINRVVRNAGPIANYLQQVMQEARQNPPPNLPPGSLVMLYEPKWAQGVPGNLEIIEDLNLEEILIYVANKCRFLLRNGYSPKDIAVLFTKASEVEKYKDRLLTAMRKRKLSQLHEESDLLLQIGDASDVLTDHIVLDSVCRFSGLERNIVFGINPGVAPPAGAYNLLLCLASRAKRHLYILKASV
For B1, the binding entry is on record as “binds”.
